Earlier results in patent US7618958B2, “Stereospecific anxiolytic and anticonvulsant agents with reduced muscle-relaxant, sedative-hypnotic and ataxic effects” (WISYS Technology Foundation, Inc., priority 2004, dated 2009).

Amino acid sequences for entries named in this document (tags omitted). Residues count along the entry.
UniProt P18507, 40-475: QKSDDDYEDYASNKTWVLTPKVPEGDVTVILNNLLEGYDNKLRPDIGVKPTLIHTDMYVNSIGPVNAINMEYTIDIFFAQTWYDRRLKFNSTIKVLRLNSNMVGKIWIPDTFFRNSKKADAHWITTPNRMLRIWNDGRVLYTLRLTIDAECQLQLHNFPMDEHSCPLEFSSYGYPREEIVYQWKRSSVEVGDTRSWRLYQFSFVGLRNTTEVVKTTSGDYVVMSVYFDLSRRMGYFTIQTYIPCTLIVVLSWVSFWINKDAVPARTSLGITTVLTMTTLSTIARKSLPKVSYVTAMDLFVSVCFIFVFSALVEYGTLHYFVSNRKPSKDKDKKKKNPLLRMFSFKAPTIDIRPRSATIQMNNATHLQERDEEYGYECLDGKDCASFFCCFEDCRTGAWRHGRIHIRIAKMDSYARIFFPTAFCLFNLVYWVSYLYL
UniProt P31644, 32-462: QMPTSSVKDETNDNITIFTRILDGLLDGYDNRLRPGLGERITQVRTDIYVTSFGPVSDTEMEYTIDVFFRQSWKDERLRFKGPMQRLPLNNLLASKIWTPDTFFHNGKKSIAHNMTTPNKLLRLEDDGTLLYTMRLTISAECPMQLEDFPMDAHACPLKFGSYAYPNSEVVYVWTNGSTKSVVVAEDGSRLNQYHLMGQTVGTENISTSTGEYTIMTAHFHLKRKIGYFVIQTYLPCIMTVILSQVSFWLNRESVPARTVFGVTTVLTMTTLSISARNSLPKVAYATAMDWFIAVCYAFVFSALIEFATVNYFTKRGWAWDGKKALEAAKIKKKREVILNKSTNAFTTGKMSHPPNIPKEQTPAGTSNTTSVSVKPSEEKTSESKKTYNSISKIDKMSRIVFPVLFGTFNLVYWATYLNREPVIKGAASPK

Target: GABAA/α5 receptors (Homo sapiens, UniProt P18507+P31644)
Conditions: read-out: Ki, GABAA/α5 receptors; cited from earlier work

In the case of `CN1C(=O)CN=C(c2ccccc2)c2cc(Cl)ccc21` [Diazepam, reference compound], the Ki is given as less than 25 nM.
